Data source: PubChem BioAssay AID652243 (Drosophila RNAi Screening Center, 2013)

Assay: 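Fly regulators of androgen-dependent reporter output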 (primary screen)
System: Drosophila S2R+ cells
Knock-down reagent: long dsRNA against Drosophila genes
Duration: 72 h (48 h, then 24 h hormone)
Treatment: synthetic androgen R1881 at 10 nM for 24 h
Measured: 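Per-well raw luminescence of the androgen-driven firefly reporter and of the Renilla control, two replicates each, without normalisation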
Direction: firefly reporter light: higher = more light from androgen-responsive reporter; Renilla control light: higher = more constitutive control signal (cell number, transfection)
Active means: 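Hit when the log firefly-to-Renilla ratio dropped or increased by a fixed fold versus the mean of GFP or LacZ controls across duplicate plates; lowering cut given as 1.5 and as 3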
Calls: active = hit: reporter lowered or raised; inactive = no hit
The deposit covers about 24,000 reagents; below is an unselected part of those with a known target gene and a result. Over the whole deposit, 246 (1%) are marked active. 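Plates not normalised; calls are printed but the firefly/Renilla ratio behind them is not deposited; fold cut for lowering reported inconsistently.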 Raw values vary from plate to plate and are shown uncorrected. Entries without a mark were called inactive. A plus sign joins genes that one reagent is predicted to hit. Not stated in the record: the amount of reagent.

The opening 3 entries, ahead of the listing:
gene	DRSC id	firefly reporter light, replicate 1	firefly reporter light, replicate 2	Renilla control light, replicate 1	Renilla control light, replicate 2
Rubicon	DRSC17889	2.35e5	2.98e5	2.29e6	2.84e6
Rubicon	DRSC25992	2.04e5	2.31e5	7.79e5	7.79e5
CG2962	DRSC18247	1.17e5	2.00e5	1.07e6	1.07e6

Results, repeating the preview:
gene	DRSC id	firefly reporter light, replicate 1	firefly reporter light, replicate 2	Renilla control light, replicate 1	Renilla control light, replicate 2
Rubicon	DRSC17889	2.35e5	2.98e5	2.29e6	2.84e6
Rubicon	DRSC25992	2.04e5	2.31e5	7.79e5	7.79e5
CG2962	DRSC18247	1.17e5	2.00e5	1.07e6	1.07e6
CG2962	DRSC27023	3.43e5	3.31e5	8.30e5	5.93e5
CG17751	DRSC15261	2.73e5	2.96e5	3.47e6	3.67e6
CG17751	DRSC22837	5.30e5	9.31e5	1.43e6	1.50e6
CG17751	DRSC24497	8.32e5	7.06e5	9.37e5	9.53e5
ubl (ubiquitin like)	DRSC04998	2.87e5	2.23e5	1.71e6	1.40e6
CG18853 + phr	DRSC27486	1.66e5	2.37e5	4.68e5	9.48e5
CG33509	DRSC37778	8.06e5	7.11e5	2.35e6	1.78e6
CG42749	DRSC18091	3.82e5	3.20e5	3.68e6	3.45e6
CG42749	DRSC18092	2.27e5	3.84e5	2.32e6	2.25e6
CG42749	DRSC29102	7.04e5	6.79e5	1.45e6	1.41e6
KFase (Kynurenine formamidase)	DRSC03258	1.53e5	86577	1.36e6	1.05e6
KFase (Kynurenine formamidase)	DRSC30035	5.12e5	3.02e5	1.63e6	1.29e6
CG17744	DRSC10286	2.64e5	1.91e5	3.19e6	2.35e6
prc (pericardin)	DRSC11385	2.28e5	2.42e5	2.29e6	1.77e6
Pex5 (Peroxin 5)	DRSC18552	3.36e5	3.91e5	3.96e6	3.42e6
Pex5 (Peroxin 5)	DRSC26136	3.19e5	2.90e5	7.37e5	7.23e5
CG11327	DRSC02146	1.77e5	2.21e5	1.47e6	1.57e6
Tsen54 (tRNA splicing endonuclease subunit 54)	DRSC10527	96185	1.27e5	1.31e6	1.11e6
Tsen54 (tRNA splicing endonuclease subunit 54)	DRSC27583	4.66e5	3.38e5	7.54e5	6.31e5
Mlf (Myelodysplasia/myeloid leukemia factor)	DRSC07472	38128	40149	7.46e5	7.46e5
Mlf (Myelodysplasia/myeloid leukemia factor)	DRSC23495	3.13e5	4.76e5	3.76e5	3.98e5
